# Primary screen of a compound library

Each number is a percent effect as filed. The controls that fix the scale are not given in the record; negative values are as filed. The compounds are a random part of those screened. A dash means the value is not listed here; it may have been measured.

Mtb growth Cornell: 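Whole-cell assay for inhibitors of Mycobacterium tuberculosis growth, labelled Cornell in the record; the read-out is not stated. The concentration is filed as 10 mM, unlikely as a test dose, so the dose is not known. Higher means stronger inhibition (inferred from two other growth screens of the library). Of about 53,000 compounds tested this way, about 900 (1.7%) reached 50% or more in at least one test.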
Mtb heat-shock: 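Assay on Mycobacterium tuberculosis, filed only as a heat shock assay from Cornell; the read-out is not stated. The concentration is filed as 10 mM, unlikely as a test dose, so the dose is not known. Higher reads as stronger inhibition (inferred: compounds with an IC50 in retests scored well above the rest). About 69,000 compounds were tested under these conditions; 1.4% (about 930) showed 50% or more at least once.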

| # | structure | Mtb growth Cornell | Mtb heat-shock |
|---|---|---|---|
| 1 | `CCCn1ncc(C(=O)N2CCN(C3Cc4ccccc4C3)CC2)c1C` | 14.51 | -14.27 |
| 2 | `CC(=O)Nc1ccc(OCc2noc(C(=O)N3CCCC3)n2)cc1` | -10.26 | 4.312 |
| 3 | `CS(=O)(=O)CCN1CCSCC1c1ccc(Cl)cc1` (stereo not drawn) | -43.5 | -2.076 |
| 4 | `O=C1NCc2ccccc2CC12CCCN(Cc1ccsc1)C2` (stereo not drawn) | - | -20.62 |
| 5 | `COCCNC(=O)C1CN(Cc2ccsc2)Cc2ccnn2C1` (stereo not drawn) | 8.02 | 1.561 |
| 6 | `O=C(NCCSC1CCCC1)c1ccc(F)cc1F` | 27.14 | 36.18 |
| 7 | `O=C(O)C(F)(F)F.O=S(=O)(N[C@@H]1CCO[C@]2(CCN(CC3CCOCC3)C2)C1)C1CC1` | -11.34 | -13.48 |
| 8 | `Cc1cc(N2CCC3(CC2)C(C(=O)O)CC(=O)N3C)nc2ccccc12` (stereo not drawn) | -25.94 | 13.07 |
| 9 | `CNC(=O)c1ccc(C2CN(C(=O)COC)CCO2)nc1` (stereo not drawn) | - | 9.942 |
| 10 | `COC1CN(C(=O)CC2CCCC2)CCC(=O)N(C)c2ccccc21` (stereo not drawn) | -13.51 | 50.44 |
| 11 | `CN(C)CCOc1ccccc1N1CCN(C(=O)c2ccoc2)CC1` | 8.226 | -45.14 |
| 12 | `O=C(O)C(F)(F)F.[H][C@@]12CN(C(=O)Cc3ccccn3)C[C@]1([H])[C@@H]2CC(=O)NC(C)C` | 1.425 | -14.3 |
| 13 | `[H][C@@]12CCCO[C@]1([H])[C@H](N1CCOCC1)CN(C(=O)c1cc(C)[nH]c1C)C2` | 1.579 | 5.063 |
| 14 | `COCC1CN(C(=O)Cc2ccc(F)cc2)Cc2ccnn2C1` (stereo not drawn) | -8.426 | 6.662 |
| 15 | `Cn1cc(CN2CCCN(C(=O)c3cn4ccccc4n3)CC2)cn1` | 1.849 | 35.29 |
| 16 | `CCN(C)C(=O)Cn1c(-c2ccco2)nn(-c2ccccc2OC)c1=O` | -14.62 | 14.5 |
| 17 | `Cc1cc(C)n(CC2CN(CC(=O)Nc3c(C)n[nH]c3C)CCO2)n1` (stereo not drawn) | 5.963 | 8.759 |
| 18 | `Cc1cc(C)c2c(NC(C)c3nncn3C3CCCC3)ncnc2n1` (stereo not drawn) | - | 2.715 |
| 19 | `O=C(O)CCNC(=O)Cc1csc(-c2cccc(Cl)c2)n1` | - | -3.227 |
| 20 | `O=C([C@H]1CCCO1)N1CCN(Cc2cccnc2)c2ncccc2C1` | 7.168 | 6.112 |
| 21 | `Cc1nc(C)n(CC2CCCN(Cc3cc(C#N)ccc3F)C2)n1` (stereo not drawn) | 24.64 | -3.57 |
| 22 | `Cc1cnn(CC2CCCN2C(=O)c2n[nH]c3ccccc23)c1` (stereo not drawn) | - | -30.18 |
| 23 | `O=C(O)[C@@H]1CN(C(=O)c2cc(C3CC3)n[nH]2)C[C@H]1c1cccc(F)c1` | 20.02 | -17.59 |
| 24 | `CCOC(C)C(=O)N1CCCN(Cc2csc(CC)n2)CC1` (stereo not drawn) | - | -18.83 |
| 25 | `N#Cc1cccc(CN2CC3(CCCCN3c3cccnc3)CC2=O)c1.O=C(O)C(F)(F)F` (stereo not drawn) | -3.881 | -4.578 |
| 26 | `[H][C@]12CC[C@]([H])(CN(C(=O)N(C)C)C1)N(Cc1nnc(C3CC3)o1)C2` | -3.086 | 104.3 |
| 27 | `CNC(=O)C1(c2cnccn2)CCCN1C(=O)c1ccn(C)n1` (stereo not drawn) | -19.51 | 13.22 |
| 28 | `CN1Cc2c(C(=O)NCC3CCCO3)ncn2-c2ccccc2S1(=O)=O` (stereo not drawn) | 9.335 | -2.077 |
| 29 | `Cc1cc(C(NC(=O)CNS(C)(=O)=O)C(C)C)c(C)s1` (stereo not drawn) | 12.33 | -0.3928 |
| 30 | `Cc1cnn(C2CN(Cc3nc(-c4ccccn4)no3)C2)c1` | -25.23 | -6.524 |
| 31 | `N[C@@H]1CCN(Cc2ccccc2CS(=O)(=O)c2ccccc2)C[C@H]1O` | 33.53 | 1.286 |
| 32 | `Cc1nc(C)c(C(=O)OCCNc2ncccc2C#N)s1` | 15.54 | 1.711 |
| 33 | `NCC1Cn2nnc(-c3cccc(F)c3)c2CO1` (stereo not drawn) | 9.363 | -8.043 |
| 34 | `Cc1ccccc1C(=O)N1CCC2(CC1)CC(c1cnn(C)c1)CO2` (stereo not drawn) | 18.06 | -9.162 |
| 35 | `CC(C)CN1CCC(C(=O)NCCNC(=O)c2ccccc2)CC1` | -24.6 | 0.2384 |
| 36 | `Cc1nonc1C(=O)N1CCCC(c2ncncc2-c2ccncc2)C1` (stereo not drawn) | - | -193.3 |
| 37 | `Cc1cc(C(=O)O)c2c(Br)cccc2n1` | -2.675 | 0.49 |
| 38 | `Cc1cnc(N2CCCC(c3ccccc3)C2)nc1-c1ccnn1C` (stereo not drawn) | 45.53 | -0.3105 |
| 39 | `COc1cc(NC(=O)c2ccc(F)cc2Cl)c(C(=O)N(C)C)cc1OC` | -28.62 | -17.92 |
| 40 | `N[C@@H]1CC[C@H](C(=O)NCCn2cc(Cl)cn2)C1` | 5.109 | 5.875 |
| 41 | `Cn1cc(N2CCC(Nc3ccc4nccnc4n3)C2=O)cn1` (stereo not drawn) | - | -32.58 |
| 42 | `O=C1NCCCc2[nH]c(C3CCCN(C(=O)C4CC4)C3)nc21` (stereo not drawn) | -31.66 | 22.57 |

5 of the entries, repeated:

- CCN(C)C(=O)Cn1c(-c2ccco2)nn(-c2ccccc2OC)c1=O : Mtb growth Cornell: -14.62%; Mtb heat-shock: 14.5%
- Cc1cnn(C2CN(Cc3nc(-c4ccccn4)no3)C2)c1 : Mtb growth Cornell: -25.23%; Mtb heat-shock: -6.524%
- Cn1cc(CN2CCCN(C(=O)c3cn4ccccc4n3)CC2)cn1 : Mtb growth Cornell: 1.849%; Mtb heat-shock: 35.29%
- [H][C@@]12CCCO[C@]1([H])[C@H](N1CCOCC1)CN(C(=O)c1cc(C)[nH]c1C)C2 : Mtb growth Cornell: 1.579%; Mtb heat-shock: 5.063%
- Cc1cc(C(NC(=O)CNS(C)(=O)=O)C(C)C)c(C)s1 (stereo not drawn) : Mtb growth Cornell: 12.33%; Mtb heat-shock: -0.3928%

Source: ChEMBL document CHEMBL3988442, “University of Dundee, Small-Polar-MMV Screening Library” (2021).